Data source: PubChem BioAssay AID504793 (Drosophila RNAi Screening Center, 2011)

- Test: 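Genes required for cells to halt at G2/M after double-strand DNA breaks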 (primary screen)
- System: Drosophila S2R+ cells
- Reagent: long dsRNA against Drosophila genes, about 0.25 µg dsRNA per well
- Timing: 4 days of dsRNA, then 4 hours of drug before read-out
- Challenge: doxorubicin 0.5 µM for 4 hours to cause double-strand breaks, in cells also given a low, harmless dose of dsRNA against nbs to sensitise the assay
- Measurement: 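Mitotic index as the number of phospho-histone H3-positive cells in each well following doxorubicin, given as raw counts without normalisation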
- Reading the numbers: mitotic cells: higher = more cells in mitosis, weaker G2 arrest
- Rule for the call: 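a call needs confirmation in secondary tests, with other dsRNAs and a check of mitotic timing without damage, not just a high primary count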
- Meaning of the calls: active = confirmed in follow-up tests; inactive = not confirmed
The deposit covers about 23,000 reagents; this is a random part of those that have a named target and a result. Over the whole deposit, 62 (0.27%) are marked active. 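Calls come from follow-up tests whose scores are not deposited, so confirmed genes may have low counts here; counts are not normalised per plate.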 The raw values are shown without normalisation. Unmarked entries are inactive. Names joined by + are all predicted targets of the reagent.

target gene	PubChem SID	mitotic cells, replicate 1	mitotic cells, replicate 2
CG12229	SID104189660	7	
Syx4	SID104198378	15	
Syx4	SID104206130	7	
CG3793	SID104181774	10	
ox	SID104187312	9	
CG17380	SID104195022	7	
mIF2	SID104194302	7	
mIF2	SID104204912	6	
CG9962	SID104180531	4	
CG9962	SID104206316	5	
Kdm3	SID104196185	3	
Kdm3	SID104207203	6	
Sr-CIV	SID104180367	5	
Sr-CIV	SID104203485	13	
elgi	SID104190034	8	
elgi	SID104208209	3	
Mnr	SID104200341	3	
Mnr	SID104200342	12	12
Mnr	SID104201912	8	
clumsy	SID104182903	6	
p38b	SID104183378	4	
lms	SID104186179	5	
lms	SID104206085	2	
mys	SID104198591	11	
mys	SID104207605	9	
knk	SID104195785	9	
mask	SID104195162	25	
mask	SID104195797	14	
mask	SID104195810	25	
mask	SID104203609	18	
CG3040	SID104201940	9	
CG13339	SID104186165	9	
CG4377	SID104184259	8	
CG4377	SID104206950	6	
ArgRS	SID104199930	11	
PrBP	SID104182981	4	
PrBP	SID104204406	5	
CG13218	SID104186132	8	
CG13218	SID104205495	7	
Art6	SID104196375	2	
Syx16	SID104200299	1	
Syx16	SID104205707	5	
CG34276	SID104195603	4	
Aduk	SID104196243	6	
Aduk	SID104208382	5	
shd	SID104190921	3	
CR42546	SID104183503	5	
bys	SID104198540	6	
bys	SID104207557	3	
Ube4B	SID104183069	5	
cer	SID104185784	6	
Gr61a	SID104188150	4	
CG3526	SID104197032	62	
CG3526	SID104198428	8	
CG3526	SID104203184	9	
CG9863	SID104207035	6	
CG8870	SID104196244	7	
Gr36c	SID104182229	6	
Gr36c	SID104204849	12	
Prosbeta2R2	SID104191985	7	
rgn	SID104191401	8	
CG11113	SID104185831	4	
scaf6	SID104189867	10	
scaf6	SID104190468	2	
Cht7	SID104188330	3	
Cht7	SID104201444	4	
aos	SID104191115	5	

In a second layout: results already given.
target gene,PubChem SID,"mitotic cells, replicate 1","mitotic cells, replicate 2"
mIF2,SID104204912,6,
CG9962,SID104180531,4,
CG9962,SID104206316,5,
Kdm3,SID104196185,3,
Kdm3,SID104207203,6,
Sr-CIV,SID104180367,5,
Sr-CIV,SID104203485,13,
elgi,SID104190034,8,
elgi,SID104208209,3,
Mnr,SID104200341,3,
Mnr,SID104200342,12,12
Mnr,SID104201912,8,
clumsy,SID104182903,6,
p38b,SID104183378,4,
lms,SID104186179,5,
lms,SID104206085,2,
mys,SID104198591,11,
mys,SID104207605,9,
knk,SID104195785,9,

The listing continues:
target gene	PubChem SID	mitotic cells, replicate 1	mitotic cells, replicate 2
CG42307 + mus312	SID104190800	3	
CG42307 + mus312	SID104206286	40 (active)	
chk	SID104184786	4	
SMC2	SID104187336	9	
SMC2	SID104208307	13	
Glut3	SID104196473	3	
Glut3	SID104204793	3	
E2f2	SID104183112	5	
CG18128	SID104184096	2	
CG9286	SID104196259	5	
CG9286	SID104206646	3	
Iml1	SID104188041	7	
msl-2	SID104180621	5	
msl-2	SID104206752	6	
PGRP-SC2	SID104186273	5	
PGRP-SC2	SID104203995	3	
CG5065	SID104186704	9	
Nadsyn	SID104200014	22	
Kank	SID104185305	9	
Kank	SID104185725	8	
Oatp30B	SID104182519	4	
Rgk3	SID104184042	9	
Rgk3	SID104184046	3	
Rgk3	SID104184047	5	
Rgk3	SID104206675	5	
Uhg3	SID104202320	5	9
Usp2	SID104200382	7	
Usp2	SID104200424	3	
Usp2	SID104200425	10	
Usp2	SID104205610	3	
Or43b	SID104187278	4	
Or43b	SID104208109	3	
Chc	SID104200021	10	
Rpp30	SID104180112	7	
MED24	SID104190736	4	
CG13562	SID104183992	9	
CG13562	SID104207045	7	
CG17440	SID104197918	16	
CG7730	SID104190701	6	
gnu	SID104190289	3	
CG31082 (retired record)	SID104193567	12	
CG31082 (retired record)	SID104206678	5	
mAChR-B	SID104196137	7	
mAChR-B	SID104205282	6	
Tpt	SID104205761	4	
CG5828	SID104182692	8	
CG5828	SID104203207	6	
Lsp1beta	SID104180549	3	
Lsp1beta	SID104203491	2	
CG31681	SID104179899	7	
CG31681	SID104204437	6	
Wdr82	SID104182387	4	7
Wdr82	SID104201395	8	
Ctns	SID104194967	14	
CG32079	SID104202044	7	
ninaD	SID104182678	3	
ninaD	SID104203223	6	
CG31815	SID104181340	8	
CG31815	SID104207807	5	
CG6231	SID104195789	8	
CG9072	SID104199939	13	
CG3690	SID104197962	8	
CG3690	SID104198433	13	
p130CAS + Dic61B	SID104188380	3	
Cpr56F	SID104187118	7	
Cpr56F	SID104202984	5	
CG33267	SID104188912	5	
CG15083	SID104186306	11	
snoRNA:660 + Act57B	SID104202752	5	
tctn + B9d2	SID104182952	4	
apolpp	SID104197008	5	
Cpr49Ag	SID104186995	4	
Cpr49Ag	SID104207156	6	
